The values below come from publication PMC4359148.

The assay addresses T1, 3FS-mORRM1 (3xFLAG-strepII-tagged mature ORRM1, expressed from 35S::RecA-3FS-mORRM1) (Arabidopsis thaliana) (UniProt Q8L440).
T1 sequence: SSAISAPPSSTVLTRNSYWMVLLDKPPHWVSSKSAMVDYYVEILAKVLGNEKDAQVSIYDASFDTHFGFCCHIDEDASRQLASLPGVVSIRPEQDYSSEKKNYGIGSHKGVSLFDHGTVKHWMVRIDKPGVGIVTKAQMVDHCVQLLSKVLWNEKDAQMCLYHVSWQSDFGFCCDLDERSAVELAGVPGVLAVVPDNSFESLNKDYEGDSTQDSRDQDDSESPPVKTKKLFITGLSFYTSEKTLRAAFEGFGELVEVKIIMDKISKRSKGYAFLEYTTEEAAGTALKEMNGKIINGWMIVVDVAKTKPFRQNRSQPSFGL
Put plainly: affinity purification with mass spectrometry; anti-FLAG agarose IP of 3FS-mORRM1 from total leaf protein of transgenic plants; wild-type Columbia as negative control; 150 mM NaCl, 50 mM Tris-HCl pH 7.4, 1 mM EDTA, 0.2% NP-40; eluate analysed by nanoLC-LTQ-Orbitrap MS/MS.

These are yes or no findings as the source states them, for the method shown. In cells and extracts the contact can be indirect. Here binding means that the protein was enriched with, or labelled near, the bait; the list need not be complete. Where a sequence is shown, tags or fusion partners need not be part of it.

As for “OZ1 (Organelle Zinc finger 1), protein encoded by At5g17790”, the binding entry is “binds”.
